# Results: paper PMC6925144, “A prospective compound screening contest identified broader inhibitors for Sirtuin 1” (Scientific Reports, 2019)
# Sequences of proteins named here, by UniProt entry; tags and fusion partners are left off. Residues count along the entry.
# UniProt Q96EB6, 2-747 limits assumed: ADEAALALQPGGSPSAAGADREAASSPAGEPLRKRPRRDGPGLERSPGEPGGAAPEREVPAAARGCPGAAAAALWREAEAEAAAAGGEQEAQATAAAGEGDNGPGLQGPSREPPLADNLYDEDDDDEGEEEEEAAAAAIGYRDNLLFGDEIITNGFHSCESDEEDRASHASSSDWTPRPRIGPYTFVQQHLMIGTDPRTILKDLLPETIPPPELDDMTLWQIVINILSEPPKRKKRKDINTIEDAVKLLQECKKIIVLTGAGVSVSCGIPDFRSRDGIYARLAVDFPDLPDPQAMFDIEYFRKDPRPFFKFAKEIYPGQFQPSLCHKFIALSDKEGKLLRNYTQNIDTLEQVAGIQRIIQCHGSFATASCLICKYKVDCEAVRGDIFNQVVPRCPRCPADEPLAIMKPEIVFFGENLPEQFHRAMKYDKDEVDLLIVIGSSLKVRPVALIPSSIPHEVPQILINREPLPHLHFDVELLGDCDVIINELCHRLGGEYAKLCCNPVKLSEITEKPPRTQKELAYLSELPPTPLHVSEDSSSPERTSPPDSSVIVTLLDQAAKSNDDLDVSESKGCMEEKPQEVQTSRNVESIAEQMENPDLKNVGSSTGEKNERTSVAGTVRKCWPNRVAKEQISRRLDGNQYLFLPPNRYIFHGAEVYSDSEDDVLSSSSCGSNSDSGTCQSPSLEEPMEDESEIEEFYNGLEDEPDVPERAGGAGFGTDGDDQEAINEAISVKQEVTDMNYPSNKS
# In all, about 3,200 compounds were measured (“TSA(without NAD+) / Primary screening (TSA) / delta Tm (K)”: median about -0.07, highest 2% from about 0.37 on). Some of the results follow.
# Target: NAD-dependent deacetylase Sirtuin 1 (human, UniProt Q96EB6)
# Experiment: primary screen, delta tm
# Parameters: single well (n = 1)
# Details: 10 µM
# In short: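 Thermal shift of Sirtuin 1 measured without NAD+, compound at 10 µM (n = 1); value is ΔTm, with hits defined as ΔTm > 0.45 K or < −1.5 K. Hits retested at 5, 10, 20 µM (n = 4) and counterscreened on bovine carbonic anhydrase and ABL1 SH2 domain.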
row,Structure (SMILES),TSA(without NAD+) / Primary screening (TSA) / delta Tm (K)
1,NC(=O)C1CCCN(c2ncnc3sc4c(c23)CCCC4)C1 (stereo not shown),-0.18
2,CCn1c(C(=O)Nc2cccc(CN3C(=O)CNC3=O)c2)cc2ccccc21,0.23
3,COc1cccc(NC(=O)C(Oc2ccc(C(N)=O)cc2)c2ccccc2)c1 (stereo not shown),-0.08
4,Cc1cnc(C(=O)OCC(=O)N(c2ccccc2)C(C)C)cn1,-0.13
5,Cc1cc(C)nc(NNC(=O)c2cc(-c3ccco3)nc3c(C(N)=O)ncn23)n1,-0.21
6,CCc1ccccc1N1CC(C(=O)Nc2cccc(S(=O)(=O)Nc3ccc(OC)cc3)c2)CC1=O (stereo not shown),0.02
7,CC(NC(=O)CCn1ccc2ccccc21)C(=O)NC1CCCC1 (stereo not shown),-0.04
8,O=C(CNC(=O)c1cccs1)NCC(=O)NC1CC1,-0.02
9,CCOCCCOC(=O)c1ccc2[nH]c(C(F)F)nc2c1,-0.02
10,COc1cccc(C(=O)C2=C(O)C(=O)N(CCCN3CCOCC3)C2c2ccccn2)c1 (stereo not shown),0.02
11,CCOc1ccc(C(=O)N[C@H](C(=O)Nc2nc[nH]c2C(N)=O)C(C)C)cc1,-0.05
12,NC(=O)c1c(NC(=O)C2CCN(c3ncc(C(F)(F)F)cc3Cl)CC2)sc2c1CCC2,0.39
13,CCN(Cc1cccs1)C(=O)CSc1ncnc2c1cnn2C,-0.15
14,Cc1nc(-c2ccc(CCNC(=O)c3ccc(NC(N)=O)cc3)s2)cs1,0.23
15,CCOC(=O)C(C#N)C1(C#N)CCCC1 (stereo not shown),-0.12
16,Sc1nc(C2CC2)n(-c2ccccc2)n1,0.06
17,CC(C)C(N)CN (stereo not shown),-0.21
18,COc1ccc(-c2nn(-c3ccccc3)cc2C=C2C(=O)NC(=S)NC2=O)cc1OC,-0.05
19,COc1cccc2cc(C(=O)C3=C(O)C(=O)N(CCCN4CCOCC4)C3c3ccc(F)cc3)oc12 (stereo not shown),-0.12
20,CCC1(c2ccc(F)cc2)NC(=O)N(CC(=O)Nc2ccc(C(N)=O)cc2)C1=O (stereo not shown),-0.22
21,O=C1NCCCc2[nH]c3ccc(Cl)cc3c21,-0.13
22,Cc1[nH]c2ccc(C(=O)NC3CCC(C(N)=O)CC3)cc2c1C (stereo not shown),0.13
23,COC(=O)c1cccc(NC(=O)COC(=O)c2cc(O)cs2)c1,0.16

# 4 entries drawn at random from the list so far:
row,Structure (SMILES),TSA(without NAD+) / Primary screening (TSA) / delta Tm (K)
22,Cc1[nH]c2ccc(C(=O)NC3CCC(C(N)=O)CC3)cc2c1C (stereo not shown),0.13
16,Sc1nc(C2CC2)n(-c2ccccc2)n1,0.06
10,COc1cccc(C(=O)C2=C(O)C(=O)N(CCCN3CCOCC3)C2c2ccccn2)c1 (stereo not shown),0.02
4,Cc1cnc(C(=O)OCC(=O)N(c2ccccc2)C(C)C)cn1,-0.13

# Going on with the list:

row,Structure (SMILES),TSA(without NAD+) / Primary screening (TSA) / delta Tm (K)
1,N#Cc1c(NCCOc2ccc3c(c2)CCC(=O)N3)nc2ccccn12,-0.12
2,Cn1cc(C(=O)Nc2cccc(C3(C)NC(=O)NC3=O)c2)c2ccccc21 (stereo not shown),-0.14
3,Cc1ccc(Cc2cnc(N)s2)cc1,-0.22
4,CC(C)CCN1C(=O)c2ccc(C(=O)OCC(=O)NC(C)C34CC5CC(CC(C5)C3)C4)cc2C1=O (stereo not shown),0.48
5,CN(C)c1ncccc1CNC(=O)CN(C)c1ncnc2nc[nH]c12,-0.12
6,NC(=S)c1ccc(C(=O)Nc2ccc(OC(F)F)cc2)cc1,0.12
7,COc1ccc(CNCC(=O)Nc2sc(-c3ccccc3)cc2C(N)=O)cc1,-0.12
8,Cc1ccc(N(C)S(=O)(=O)c2cccc(C(=O)OCC(N)=O)c2)cc1,-0.04
9,CCOc1cc(/C=C/C(=O)C2C(=O)C=C(C)OC2=O)ccc1OCC(=O)N1CCOCC1 (stereo not shown),0.02
10,CC(C)C(NC(=O)CCCn1c(=O)oc2cc([N+](=O)[O-])ccc21)c1nnc2ccccn12 (stereo not shown),-0.08
11,CC(=O)c1ccc(NC(=O)C(C)OC(=O)c2cccc(S(=O)(=O)NC(C)C34CC5CC(CC(C5)C3)C4)c2)cc1 (stereo not shown),0.35
12,CN(c1ccc(F)cc1)S(=O)(=O)c1ccc(Cl)c(C(=O)Nc2ccc(C(N)=O)cc2)c1,0.12
13,C=CCOc1ccc(C(=O)C2=C(O)C(=O)N(CCN3CCOCC3)C2c2ccco2)cc1 (stereo not shown),-0.15
14,NC(=O)C1CC(C(=O)NCc2ccc(O)cc2)=NN1c1ccccc1 (stereo not shown),-0.12
15,COc1ccc(NC(=O)NCC(C)(C)SC)cc1,-0.13
16,CC(=O)c1cc(CCC(=O)Nc2ccc(-c3nnc4n3CCCCC4)cc2)oc1C,0.02
17,CN(c1ccccc1)S(=O)(=O)c1cccc(C(=O)Nc2ccccc2-c2ccccc2)c1,0.23
18,c1nc(N2CCOCC2)c2sccc2n1,0.12
19,COc1cccc(C(C)CC(=O)N2CCC(Oc3ccnc(C(N)=O)c3)CC2)c1 (stereo not shown),0.02
20,COc1cccc(CN(C(=O)CN2C(=O)c3cccc(N)c3C2=O)C23CC4CC(CC(C4)C2)C3)c1,-0.18
21,COc1ccc([N+](=O)[O-])cc1NC(=O)C(C)N(NC(=O)COc1cccc(Br)c1)C(C)C(=O)Nc1cc([N+](=O)[O-])ccc1OC (stereo not shown),-0.12
22,NNc1ncnc2c1cnn2-c1ccc(Cl)cc1,0.15
23,OCCCNc1nc2ccccc2s1,-0.27

row,Structure (SMILES),TSA(without NAD+) / Primary screening (TSA) / delta Tm (K)
1,Cc1ccc(N(C)S(=O)(=O)c2cccc(C(=O)Nc3nc4ccccc4[nH]3)c2)cc1,-0.02
2,Cc1ccccc1C(=O)N1CCC(C(=O)NC2CCCCCC2)CC1,0.05
3,Cc1onc(-c2ccccc2)c1-c1nnc(CSc2ncnc3sc4c(c23)CCC(C)C4)o1 (stereo not shown),-0.07
4,N#Cc1ccc(OCCN2CCCC2C(N)=O)cc1 (stereo not shown),-0.17
5,CN(C)C(C)(C)CNc1ncnc2ccsc12,0.02
6,C#CCNC(=O)CNC(=O)c1ccc2c(=O)[nH]c(S)nc2c1,0.19
7,COC(=O)c1ccc2[nH]c3c(c2c1)CNCC3,-0.11
8,CC(=O)c1ccc(N2CCN(c3ncnc4c3oc3ccccc34)CC2)c(F)c1,-0.12
9,COc1ccc(C(=O)C2=C(O)C(=O)N(CCN3CCOCC3)C2c2ccc(C)o2)cc1OC (stereo not shown),-0.01
10,Cc1ccc(N(C)S(=O)(=O)c2cccc(C(=O)Nc3c(C)cccc3C(C)C)c2)cc1,-0.13
11,Cn1c(=O)[nH]c(=O)c2c1nc(N1CCC(C(N)=O)CC1)n2CCCSc1nc2ccccc2s1,-0.04
12,CC(NC(=O)c1nccnc1N)c1ccc(NC(=O)C2CC2)cc1 (stereo not shown),-0.15
13,O=C(CN1CCCC2(CC=CCC2)C1)N1CCc2[nH]c3ccccc3c2C1 (stereo not shown),-0.23
14,Cc1ccc2oc(=O)cc(N3C[C@H]4C[C@H](C3)c3cccc(=O)n3C4)c2c1,0.06
15,CNC(=O)Cn1ccc(C(F)(F)F)n1,-0.04
16,Cc1c(C(=O)C2=C(O)C(=O)N(CCCN3CCOCC3)C2c2ccccc2)cnn1-c1ccccc1 (stereo not shown),0.03
17,O=C(Nc1ccc(F)c(F)c1F)c1ccncc1,-0.05
18,CCCNC(=O)C1CCCN1c1cc(C(F)(F)F)nc2ccccc12 (stereo not shown),-0.23
19,Cc1ccc(-c2nc(CC(=O)NNC(=O)c3cccs3)cs2)c(C)c1,0.02
20,Cn1c(=O)c2c(ncn2CCCC(=O)Nc2nc(-c3ccc4c(c3)CCC(=O)N4)cs2)n(C)c1=O,0.08
21,CCC1CCc2[nH]c3ccc(C)cc3c2C1 (stereo not shown),-0.15
22,COc1ccc(N(C)S(=O)(=O)c2cccc(C(=O)Nc3ccc4c(C)cc(=O)oc4c3)c2)cc1,-0.13
23,C=CCOc1ccc(C(=O)C2=C(O)C(=O)N(CCCN3CCOCC3)C2c2ccccc2F)cc1 (stereo not shown),-0.04

row,Structure (SMILES),TSA(without NAD+) / Primary screening (TSA) / delta Tm (K)
1,C/C(CC12CC3CC(CC(C3)C1)C2)=N/NC1=NS(=O)(=O)c2ccccc21,-0.08
2,COc1ccc(Nc2ccc3nnnn3n2)cc1OCC1CCCO1 (stereo not shown),-0.22
3,O=C(O)CCS(=O)(=O)[O-],-0.03
4,CN(C)c1ncnc2c1cc(C(=O)O)n2C,-0.02
5,O=C1NC(Cc2ccccc2)C(=O)N1CN1CCN(C/C=C/c2ccccc2)CC1 (stereo not shown),-0.01
6,CS(=O)(=O)CCS(N)(=O)=O,-0.27
7,O=C1/C(=C/c2ccccc2)Oc2cc(O)ccc21,0.08
8,NC(=O)c1ccc(NC(=O)CSc2nnc(N)s2)cc1,-0.24
9,Cc1sc2ncnc(N3CCC(C(=O)Nc4sc5c(c4C(N)=O)CCCC5)CC3)c2c1C,0.16
10,CCn1nnc2cc(C(=O)N3CCN(C(c4ccc(F)cc4)c4ccc(F)cc4)CC3)ccc21,-0.27
11,CCc1ccccc1-n1c(SCCS(C)(=O)=O)nc2ccccc2c1=O,-0.23
12,COc1cc(CNc2ncccc2C#N)ccn1,-0.18
13,Cc1nc(-c2c[nH]c(C(=O)NCc3ccc(-n4cncn4)cc3)c2)cs1,-0.21
14,COc1ccc(NC(=O)c2ccc(NC(=O)c3cnoc3C)cc2)cc1OCc1cccnc1,-0.18
15,Cc1ccc(S(=O)(=O)N2CCC(C(=O)N3CCCCCCC3)CC2)cc1C,0.15
16,NC(=O)CCn1cnc2cc(F)c(F)cc21,-0.27
17,CN1CCN(C(=O)CCCc2ccccc2)c2nc3ccccc3nc21,0.03
18,COc1cc(C(=O)NC2CCCNC2=O)cc(OC)c1C (stereo not shown),-0.18
19,CN1CCC(NC(=O)CCc2cnccn2)C1c1ccccc1 (stereo not shown),-0.27
20,NC(=O)c1ccc(=O)n(Cc2csc(-c3ccccc3F)n2)n1,-0.08
21,CNC(=O)C1CCCN(c2ncnc3ccsc23)C1 (stereo not shown),-0.28
22,O=C(Nc1cccc(S(=O)(=O)NCc2ccco2)c1)C1=NN(c2ccccc2)C(=O)CC1,-0.18
